Reference: PubChem BioAssay AID1224826 (NIAID, 2016)

Test: 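Genes that change LPS-induced Tnf promoter activity in mouse macrophages when knocked down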 (primary screen)
Cells: RAW264.7 G9 macrophages from mouse bearing reporters for p65 (GFP) and the Tnf promoter (mCherry)
Reagent: siRNA pool against mouse genes, 100 nM
Time to read-out: 16 h of LPS stimulation, after 2 days of siRNA transfection
Treatment: bacterial lipopolysaccharide (Salmonella minnesota R595), 10 ng/ml
Read-out: 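Imaged Tnf reporter mCherry in nuclei, minus background, normalised per plate to the median and expressed as robust z-scores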
Scale: Tnf reporter robust z-score: higher = stronger Tnf promoter reporter signal after LPS
Hit rule: 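a well counts as active at a score of -1.3 or below (Tlr4 knock-down control median) or above 3 (raised signal); controls and wells holding fewer than 50 cells are excluded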
Meaning of the calls: active = Tnf reporter clearly lowered or raised; inactive = no clear change in Tnf reporter
The whole screen tested about 17,000 reagents; shown is a part drawn at random. About 1,110 of all reagents (6.6%) were called active. 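Active means lowered or raised reporter signal; replicate intensities are raw and not normalised per plate.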 Reagents against one gene are numbered here. Further read-outs or replicates are left out here.

no.	gene	pool no.	Tnf reporter robust z-score	fewer than 50 cells in well	Call
1	Mybpc2 (myosin binding protein C, fast-type)	1	-0.07	enough cells in well	inactive
2	Oxsr1 (oxidative-stress responsive 1)	1	1.17	enough cells in well	inactive
3	Enpp4 (ectonucleotide pyrophosphatase/phosphodiesterase 4)	1	-0.81	enough cells in well	inactive
4	Slc35a3	1		fewer than 50 cells per well; well left out of calls	inactive
5	Arl6ip5 (ADP-ribosylation factor-like 6 interacting protein 5)	1	-0.3	enough cells in well	inactive
6	Cyb5r3 (cytochrome b5 reductase 3)	1	1.41	enough cells in well	inactive
7	Tnfrsf14	1	0.56	enough cells in well	inactive
8	Smg8 (SMG8 nonsense mediated mRNA decay factor)	1	0.7	enough cells in well	inactive
9	Or51a43 (olfactory receptor family 51 subfamily A member 43)	1	2.8	enough cells in well	inactive
10	Smgc (submandibular gland protein C)	1		fewer than 50 cells per well; well left out of calls	inactive
11	Anxa1 (annexin A1)	1	0.87	enough cells in well	inactive
12	Or14c45 (olfactory receptor family 14 subfamily C member 45)	1		fewer than 50 cells per well; well left out of calls	inactive
13	Gzmg (granzyme G)	1	1.05	enough cells in well	inactive
14	4632404H12Rik (RIKEN cDNA 4632404H12 gene)	1	2.35	enough cells in well	inactive
15	Gnat2 (G protein subunit alpha transducin 2)	1	-0.49	enough cells in well	inactive
16	Kif16b (kinesin family member 16B)	1	0.66	enough cells in well	inactive
17	Hspa14 (HSPA14, heat shock protein family A (Hsp70) member 14)	1	-1.26	enough cells in well	inactive
18	Prnd (prion like protein doppel)	1	-0.29	enough cells in well	inactive
19	Vamp2 (vesicle-associated membrane protein 2)	1	1.98	enough cells in well	inactive
20	Aldh3a1 (aldehyde dehydrogenase family 3, subfamily A1)	1	-0.08	enough cells in well	inactive
21	Gli2 (GLI-Kruppel family member GLI2)	1	-1.1	enough cells in well	inactive
22	Zfp353-ps (zinc finger protein 353, pseudogene)	1	0.02	enough cells in well	inactive
23	Stap2 (signal transducing adaptor family member 2)	1	-0.78	enough cells in well	inactive
24	Hpse (heparanase)	1	-0.12	enough cells in well	inactive
25	Nusap1 (nucleolar and spindle associated protein 1)	1	0.11	enough cells in well	inactive
26	Slc35f6	1		fewer than 50 cells per well; well left out of calls	inactive
27	Ece2 (endothelin converting enzyme 2)	1	1.79	enough cells in well	inactive
28	Ece2 (endothelin converting enzyme 2)	2	0.91	enough cells in well	inactive
29	Ppie (peptidylprolyl isomerase E (cyclophilin E))	1		fewer than 50 cells per well; well left out of calls	inactive
30	Itgb1 (integrin beta 1 (fibronectin receptor beta))	1	-0.3	enough cells in well	inactive
31	Epha3 (Eph receptor A3)	1	-0.91	enough cells in well	inactive
32	Nlrc4 (NLR family, CARD domain containing 4)	1	-0.87	enough cells in well	inactive
33	Tssk2 (testis-specific serine kinase 2)	1	1.22	enough cells in well	inactive
34	Mgat4c (MGAT4 family, member C)	1	-0.12	enough cells in well	inactive
35	Sgip1 (SH3-domain GRB2-like (endophilin) interacting protein 1)	1		fewer than 50 cells per well; well left out of calls	inactive
36	Acat2 (acetyl-Coenzyme A acetyltransferase 2)	1	0.12	enough cells in well	inactive
37	Emg1 (EMG1 N1-specific pseudouridine methyltransferase)	1	0.22	enough cells in well	inactive
38	Disp3 (dispatched RND transporter family member 3)	1	-1.51	enough cells in well	active
39	Sult1b1 (sulfotransferase family 1B, member 1)	1	0.52	enough cells in well	inactive
40	Fpr3 (formyl peptide receptor 3)	1	0.55	enough cells in well	inactive
41	Fpr3 (formyl peptide receptor 3)	2	-0.41	enough cells in well	inactive

Reformatted: entries from further up.
{"gene":"Nusap1 (nucleolar and spindle associated protein 1)","pool no.":1,"Tnf reporter robust z-score":0.11,"fewer than 50 cells in well":"enough cells in well","Call":"inactive"}
{"gene":"Slc35f6","pool no.":1,"fewer than 50 cells in well":"fewer than 50 cells per well; well left out of calls","Call":"inactive"}
{"gene":"Ece2 (endothelin converting enzyme 2)","pool no.":1,"Tnf reporter robust z-score":1.79,"fewer than 50 cells in well":"enough cells in well","Call":"inactive"}
{"gene":"Ece2 (endothelin converting enzyme 2)","pool no.":2,"Tnf reporter robust z-score":0.91,"fewer than 50 cells in well":"enough cells in well","Call":"inactive"}
{"gene":"Ppie (peptidylprolyl isomerase E (cyclophilin E))","pool no.":1,"fewer than 50 cells in well":"fewer than 50 cells per well; well left out of calls","Call":"inactive"}
{"gene":"Itgb1 (integrin beta 1 (fibronectin receptor beta))","pool no.":1,"Tnf reporter robust z-score":-0.3,"fewer than 50 cells in well":"enough cells in well","Call":"inactive"}
{"gene":"Epha3 (Eph receptor A3)","pool no.":1,"Tnf reporter robust z-score":-0.91,"fewer than 50 cells in well":"enough cells in well","Call":"inactive"}
